Laboratory results: PMC7910587

Chains of the proteins cited; added tags and fusions are not shown.
UniProt P46940: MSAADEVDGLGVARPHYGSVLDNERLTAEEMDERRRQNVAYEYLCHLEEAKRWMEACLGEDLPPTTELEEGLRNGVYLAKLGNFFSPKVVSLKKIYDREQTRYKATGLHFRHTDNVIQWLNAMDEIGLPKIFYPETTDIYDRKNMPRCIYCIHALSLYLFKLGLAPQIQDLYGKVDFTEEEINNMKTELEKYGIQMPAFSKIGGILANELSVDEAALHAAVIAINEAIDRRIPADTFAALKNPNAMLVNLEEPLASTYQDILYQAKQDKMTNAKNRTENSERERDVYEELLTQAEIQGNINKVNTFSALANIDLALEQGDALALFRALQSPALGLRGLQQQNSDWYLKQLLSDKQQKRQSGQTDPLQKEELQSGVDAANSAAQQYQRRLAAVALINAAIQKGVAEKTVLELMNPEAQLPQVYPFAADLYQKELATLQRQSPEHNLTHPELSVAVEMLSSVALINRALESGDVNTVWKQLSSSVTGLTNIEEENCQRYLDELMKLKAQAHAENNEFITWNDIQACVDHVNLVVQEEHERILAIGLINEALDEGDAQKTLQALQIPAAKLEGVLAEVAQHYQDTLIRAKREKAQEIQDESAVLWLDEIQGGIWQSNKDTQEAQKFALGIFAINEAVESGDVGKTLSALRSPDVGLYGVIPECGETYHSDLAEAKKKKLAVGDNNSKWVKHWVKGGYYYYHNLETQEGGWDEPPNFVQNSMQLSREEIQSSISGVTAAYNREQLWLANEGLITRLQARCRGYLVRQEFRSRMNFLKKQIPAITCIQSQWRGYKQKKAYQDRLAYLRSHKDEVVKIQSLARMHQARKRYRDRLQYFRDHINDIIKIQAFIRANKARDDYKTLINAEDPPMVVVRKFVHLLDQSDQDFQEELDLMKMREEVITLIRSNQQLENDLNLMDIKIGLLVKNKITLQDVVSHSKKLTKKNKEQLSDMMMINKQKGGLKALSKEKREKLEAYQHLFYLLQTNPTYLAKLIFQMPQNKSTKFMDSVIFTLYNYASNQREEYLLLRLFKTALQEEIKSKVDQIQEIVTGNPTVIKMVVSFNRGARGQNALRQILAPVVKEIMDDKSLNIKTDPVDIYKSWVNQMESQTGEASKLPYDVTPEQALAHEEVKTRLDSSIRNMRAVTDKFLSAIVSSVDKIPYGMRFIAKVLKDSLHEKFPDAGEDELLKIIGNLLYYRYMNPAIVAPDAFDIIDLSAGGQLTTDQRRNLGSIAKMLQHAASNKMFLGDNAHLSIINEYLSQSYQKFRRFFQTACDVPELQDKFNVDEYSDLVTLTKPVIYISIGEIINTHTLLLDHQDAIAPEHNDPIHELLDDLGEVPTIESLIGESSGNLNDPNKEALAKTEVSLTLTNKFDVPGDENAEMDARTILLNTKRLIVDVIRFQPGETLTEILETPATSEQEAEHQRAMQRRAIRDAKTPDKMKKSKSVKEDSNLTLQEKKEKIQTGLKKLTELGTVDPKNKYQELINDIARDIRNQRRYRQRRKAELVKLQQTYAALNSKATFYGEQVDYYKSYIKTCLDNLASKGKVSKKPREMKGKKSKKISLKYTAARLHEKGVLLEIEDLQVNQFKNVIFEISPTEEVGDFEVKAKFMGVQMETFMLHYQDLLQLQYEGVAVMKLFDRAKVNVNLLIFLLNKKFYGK

Target: CiaD∆MKD-FLAG (Campylobacter jejuni) (UniProt Q0PAA2)
Test: co-IP; INT 407 cells infected for 2 h with the C. jejuni ∆ciaD mutant harboring ciaD-FLAG or ciaD∆MKD-FLAG; lysate on anti-FLAG M2 affinity gel; immunoblot for IQGAP1

**Q.** With “IQGAP1 (Ras GTPase-activating-like protein IQGAP1) (from UniProt P46940 1-1657)” as the substance, how does the binding read?
**A.** Its binding is “binds”.

These are yes or no findings as the source states them, for the method shown. Binding seen in cells or lysates may run through a third protein. A result given as binding can be weak or reduced; the word gives no strength.
